Assay results: PMC12505970
No constants are given. Whether binding was seen depends on the method and setting. Binding seen in cells or lysates may run through a third protein. A result given as binding can be weak or reduced; the word gives no strength.

Chains of the proteins cited; added tags and fusions are not shown. Lines headed by an entry give the natural chain unless they say otherwise; changes in a name come on top.
UniProt Q2G2G6: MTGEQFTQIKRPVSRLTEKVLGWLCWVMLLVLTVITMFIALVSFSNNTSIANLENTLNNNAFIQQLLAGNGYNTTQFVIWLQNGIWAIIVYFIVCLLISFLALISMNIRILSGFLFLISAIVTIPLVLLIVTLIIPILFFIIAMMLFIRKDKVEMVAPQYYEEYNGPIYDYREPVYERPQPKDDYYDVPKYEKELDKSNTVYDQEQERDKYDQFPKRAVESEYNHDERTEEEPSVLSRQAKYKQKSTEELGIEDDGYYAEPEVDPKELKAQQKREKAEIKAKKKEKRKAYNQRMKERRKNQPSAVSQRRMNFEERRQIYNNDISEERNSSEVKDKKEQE
UniProt A5ISX6: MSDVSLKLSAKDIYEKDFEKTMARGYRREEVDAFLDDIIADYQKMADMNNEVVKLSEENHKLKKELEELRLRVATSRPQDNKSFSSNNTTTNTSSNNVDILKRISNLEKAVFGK
UniProt A0A0H2XGG5: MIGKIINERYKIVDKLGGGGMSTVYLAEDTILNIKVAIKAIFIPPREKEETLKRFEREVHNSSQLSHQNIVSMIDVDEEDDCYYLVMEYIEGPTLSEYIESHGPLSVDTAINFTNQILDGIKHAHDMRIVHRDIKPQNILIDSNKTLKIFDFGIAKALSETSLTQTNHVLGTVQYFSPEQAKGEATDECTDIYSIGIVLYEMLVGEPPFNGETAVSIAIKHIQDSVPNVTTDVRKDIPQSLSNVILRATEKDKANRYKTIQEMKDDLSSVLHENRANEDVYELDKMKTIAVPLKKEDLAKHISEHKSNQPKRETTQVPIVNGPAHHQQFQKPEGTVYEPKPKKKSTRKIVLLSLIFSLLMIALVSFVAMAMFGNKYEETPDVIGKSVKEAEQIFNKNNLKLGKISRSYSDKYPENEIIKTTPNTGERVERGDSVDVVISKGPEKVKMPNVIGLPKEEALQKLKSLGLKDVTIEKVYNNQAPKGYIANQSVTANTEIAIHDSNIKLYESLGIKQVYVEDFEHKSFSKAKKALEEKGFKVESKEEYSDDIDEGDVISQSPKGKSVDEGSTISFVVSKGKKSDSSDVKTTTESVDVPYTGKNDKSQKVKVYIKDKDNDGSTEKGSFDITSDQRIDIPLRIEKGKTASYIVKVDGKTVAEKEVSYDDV

Target: FLAG-AuxB (AuxB^WT) (S. aureus) (UniProt Q2G2G6)
Test: co-IP; FLAG-tagged bait from S. aureus membranes solubilised in 1% DDM (PBS pH 7.4, NaCl), α-FLAG M2 magnetic beads at 4°C, washes with decreasing DDM, elution with 3×FLAG peptide; Coomassie-stained gel, bands identified by LC-MS

Substance	binding
GpsB (endogenous, S. aureus) (from UniProt A5ISX6 1-114)	binds
PknB (endogenous, S. aureus) (from UniProt A0A0H2XGG5)	binds
